# ± gives the half width of the 95% confidence interval. For many entries, trypsin and chymotrypsin gave values far apart.
# Columns and labels:
# [1] = folding stability dG unfold from trypsin proteolysis; higher = more stable
# How it was run: (§1)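 K50 was inferred by Bayesian fitting of sequencing counts obtained after protease digestion of designed mini-proteins. Unfolding free energy was derived by comparison with a sequence-predicted unfolded-state K50 and a shared folded-state K50, for each protease or both combined. The mini-proteins were under 80 residues, had no cysteine, were carried in a PA-tagged cDNA display construct, and were kept only if AlphaFold2 dimer inter-PAE exceeded 15.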
# [2] = folding stability dG unfold from chymotrypsin proteolysis; higher = more stable
# How it was run: as §1
# [3] = folding stability dG unfold (combined trypsin and chymotrypsin); higher = more stable
# How it was run: as §1
Sequence,folding stability dG unfold [1],folding stability dG unfold [2],folding stability dG unfold [3]
SAKMVVLKAYFKGDGDEIKEIADAIDFPYTIEKIPDYPDYYIATFVFPTEEKAPEWEKALKEKGYIVEGSAG [r14_745_TrMRF],1.88 ± 0.04 kcal/mol,2.48 ± 0.037 kcal/mol,2.25 ± 0.049 kcal/mol
SSVQPGQTFEFEFDIPERPGEKLKVKIEIYYDPNSDEYKVKVTFTLYKNDSPSTSVVEMSLEEFEKFLKKSA [r9_71_JUSTAS],2.54 ± 0.06 kcal/mol,5.86 ± 0.13 kcal/mol,5.92 ± 0.22 kcal/mol
MRRFEFPETGLVVPVVPSPDGRYRVRIYRPGGELVLEVELPDLPIPEGSDAEIRIPLKDLPPDLVTFVEPES [r1_263_TrMRF],0.819 ± 0.054 kcal/mol,1.46 ± 0.09 kcal/mol,1.21 ± 0.11 kcal/mol
SAGGSKAKILEINPDGEITIVVEFEPGKYIVIPVHPEFVNNPENIEKLFNFLKKIFESLGFEDIEGSAGGSA [r2_249_TrMRF],1.16 ± 0.034 kcal/mol,3.87 ± 0.1 kcal/mol,3.43 ± 0.16 kcal/mol
SAGLEIIREIARDLGLPPGHEIEKVDINVEHYPDRIRADIMITITNPKNGGRWQIQIEIEFKLPDPDQKSAG [r5_94_TrROS],1.81 ± 0.075 kcal/mol,4.84 ± 0.36 kcal/mol,4.08 ± 0.24 kcal/mol
SAGGSAGGSAKKKPKKIKKYEIEVEILVKDPKTNKYYKIKLKAEVVEYKGKLYLKIEAEIESAGGSAGGSAG [r3_409_TrROS_Hall],2.92 ± 0.18 kcal/mol,5.15 ± 0.17 kcal/mol,5.13 ± 0.3 kcal/mol
SAGGSAGGSAGGKKEELAKKLAEELEKKGVKPVKVEVVDGKIYITLKNGKKIEIKIEKKSAGGSAGGSAGGS [r10_169_TrROS_Hall],1.86 ± 0.11 kcal/mol,4.03 ± 0.16 kcal/mol,3.43 ± 0.39 kcal/mol
SMEPMSREEAEALAREMAEAGARRVLLLFAPDGRLLALRPAEEATEEEVAALRRARPGLRVEELEGSPGESA [r9_568_JUSTAS],0.425 ± 0.16 kcal/mol,2.97 ± 0.062 kcal/mol,2.07 ± 0.15 kcal/mol
SAGGSAKTITIELEIKNPETNETYRIKAEIVSVDKEKNVIVVKIEIENKNGEKYEFTFVIKDIEELSAGGSA [r15_828_TrROS_Hall],2.35 ± 0.14 kcal/mol,4.46 ± 0.12 kcal/mol,4.27 ± 0.2 kcal/mol
SAGGNRKFTLIIRIKAPPGDPDKMKEEVKEIANEIADIFRDHGVKVKVKVEYDPDNGEIYVQVEFEVPSAGG [r13_755_TrROS],3.89 ± 0.29 kcal/mol,5.12 ± 0.31 kcal/mol,4.78 ± 0.29 kcal/mol
SAGGSSYSVAQSPGPARLYSVPQPDGRVVEVDVEELPGGLLRVRVPDDPVPRLFPASLSLADIVSLSAGGSA [r2_338_JUSTAS],0.644 ± 0.02 kcal/mol,0.933 ± 0.046 kcal/mol,0.866 ± 0.032 kcal/mol
SPPVAAAKKLAEELNAEKVEVKVEKRAEPDGPYEFYVAEARLYVPEEGKVYRVRIRFYPNGEFEIEIEPESA [r9_724_TrMRF],1.4 ± 0.17 kcal/mol,3.53 ± 0.1 kcal/mol,3.05 ± 0.2 kcal/mol
SAGGSAGGSAGTLKLTLEVTVTRLYRLPDGSGSLVAETVRVRVEVELEVDELDEDGRLLLSAGGSAGGSAGG [r11_558_TrROS_Hall],3.08 ± 0.14 kcal/mol,3.269 ± 0.024 kcal/mol,3.18 ± 0.07 kcal/mol
SAGGSAGGSAGGKPKIEIELTFIDEDGYAYRLRAEIEIDEDGNVHIEVEIEKVPLPEGLSAGGSAGGSAGGS [r10_563_TrROS_Hall],2.9 ± 0.14 kcal/mol,3.28 ± 0.13 kcal/mol,3.18 ± 0.21 kcal/mol
SAGGKVKPGQKVKVKITLEYDEETGKVTIRVYSKDGKLIAEFEVSKEELKKLLEALKKAGVDEVEIYPSAGG [r13_765_TrROS_Hall],1.57 ± 0.042 kcal/mol,3.65 ± 0.048 kcal/mol,3.21 ± 0.083 kcal/mol
SAGGMTVKLVAEFTLPNGAKVRVFEVTDADGSTHTVVEIEFRAPPPPEVELSDEELERRRKEEEARKSAGGS [r16_8_TrROS_Hall],1.97 ± 0.047 kcal/mol,4.07 ± 0.046 kcal/mol,3.58 ± 0.068 kcal/mol
SAGGMVRITRDEDGILRVELFVEGTPEEAEEEAARLVRLLEELGFEEVRVEREPFGDGVVVTIEAKASAGGS [r8_113_TrMRF],2.55 ± 0.11 kcal/mol,2.86 ± 0.083 kcal/mol,2.74 ± 0.076 kcal/mol
SAGMTPEELRALARALLDAARAAGLREVTLTLRMSPEEVEALARALPPDVRIERLENGELRLTVRLPPASAG [r5_268_TrROS_Hall],0.756 ± 0.15 kcal/mol,4.353 ± 0.031 kcal/mol,3.99 ± 0.065 kcal/mol
SAGGSAGGSMKYKITKVEEVTNEDGSKYLRVEIELTDKDGKKHKFTFVFKTKEDLEKAKIKLPSAGGSAGGS [r20_130_TrROS_Hall],1.9 ± 0.11 kcal/mol,4.92 ± 0.14 kcal/mol,4.66 ± 0.14 kcal/mol
SAGGSAGGSAMEINEIVKETAKKGKNLTITVKLPDGSTVTITVTPDEDVPEDLEVLEVTVKSAGGSAGGSAG [r3_421_JUSTAS],0.344 ± 0.05 kcal/mol,1.78 ± 0.038 kcal/mol,1.4 ± 0.056 kcal/mol
SAGGSAGGSAGKQPIEMWFMFPNGVAIVLRIKVDPPSPKAKIDAIEVVPVRDPDNGKWRFSAGGSAGGSAGG [r11_919_TrROS],0.566 ± 0.11 kcal/mol,1.85 ± 0.1 kcal/mol,1.38 ± 0.14 kcal/mol
SPFIMIRIDIERKNGKEVEMMFPVPANNIKNNLRDHLGPGYKVKITDIEPIDPEQFPPGQMIKIRYRVKPSA [r9_803_TrROS],1.73 ± 0.048 kcal/mol,1.71 ± 0.13 kcal/mol,1.79 ± 0.18 kcal/mol
SAGGMRLVFVTETPEEAEEIARELAELFPDFELEAEVREEEVLVEVPETGEVKRRPVYVLVIELRPKSAGGS [r16_828_TrMRF],4.29 ± 0.098 kcal/mol,4.42 ± 0.059 kcal/mol,4.41 ± 0.079 kcal/mol
SAGGSAGGSAGEVTVPAVVPPDAVPEVVEAVERLGARAEVEWDPETGLYRVNITFDGEVGSAGGSAGGSAGG [r11_1043_TrMRF],-0.00326 ± 0.067 kcal/mol,0.901 ± 0.06 kcal/mol,0.604 ± 0.07 kcal/mol
SAGKPNGKKKEKTFKIKLKVKPKEKEKIEKFLKNLKIKLPGNAEAEFKFKVDPETDEIYVEVKIKVGGSAGG [r19_45_TrMRF],0.894 ± 0.1 kcal/mol,4.28 ± 0.18 kcal/mol,3.65 ± 0.35 kcal/mol
KTKTIVINAKDLTEEQLRELLKKLGVSEEDVEVSEDGKTVVIKIDGVTIVIVASPPKPVVKPDDPEAKKAAS [r1_57_TrROS_Hall],1.27 ± 0.051 kcal/mol,1.75 ± 0.085 kcal/mol,1.61 ± 0.12 kcal/mol

# Given tab-delimited: entries from further up.
Sequence	folding stability dG unfold [1]	folding stability dG unfold [2]	folding stability dG unfold [3]
SAKMVVLKAYFKGDGDEIKEIADAIDFPYTIEKIPDYPDYYIATFVFPTEEKAPEWEKALKEKGYIVEGSAG [r14_745_TrMRF]	1.88 ± 0.04 kcal/mol	2.48 ± 0.037 kcal/mol	2.25 ± 0.049 kcal/mol
SAGGNRKFTLIIRIKAPPGDPDKMKEEVKEIANEIADIFRDHGVKVKVKVEYDPDNGEIYVQVEFEVPSAGG [r13_755_TrROS]	3.89 ± 0.29 kcal/mol	5.12 ± 0.31 kcal/mol	4.78 ± 0.29 kcal/mol
SAGGSAGGSAGGKPKIEIELTFIDEDGYAYRLRAEIEIDEDGNVHIEVEIEKVPLPEGLSAGGSAGGSAGGS [r10_563_TrROS_Hall]	2.9 ± 0.14 kcal/mol	3.28 ± 0.13 kcal/mol	3.18 ± 0.21 kcal/mol
SAGGKVKPGQKVKVKITLEYDEETGKVTIRVYSKDGKLIAEFEVSKEELKKLLEALKKAGVDEVEIYPSAGG [r13_765_TrROS_Hall]	1.57 ± 0.042 kcal/mol	3.65 ± 0.048 kcal/mol	3.21 ± 0.083 kcal/mol
SAGGMTVKLVAEFTLPNGAKVRVFEVTDADGSTHTVVEIEFRAPPPPEVELSDEELERRRKEEEARKSAGGS [r16_8_TrROS_Hall]	1.97 ± 0.047 kcal/mol	4.07 ± 0.046 kcal/mol	3.58 ± 0.068 kcal/mol
SAGMTPEELRALARALLDAARAAGLREVTLTLRMSPEEVEALARALPPDVRIERLENGELRLTVRLPPASAG [r5_268_TrROS_Hall]	0.756 ± 0.15 kcal/mol	4.353 ± 0.031 kcal/mol	3.99 ± 0.065 kcal/mol
SAGGSAGGSAMEINEIVKETAKKGKNLTITVKLPDGSTVTITVTPDEDVPEDLEVLEVTVKSAGGSAGGSAG [r3_421_JUSTAS]	0.344 ± 0.05 kcal/mol	1.78 ± 0.038 kcal/mol	1.4 ± 0.056 kcal/mol
SAGKPNGKKKEKTFKIKLKVKPKEKEKIEKFLKNLKIKLPGNAEAEFKFKVDPETDEIYVEVKIKVGGSAGG [r19_45_TrMRF]	0.894 ± 0.1 kcal/mol	4.28 ± 0.18 kcal/mol	3.65 ± 0.35 kcal/mol
